In article PMC7283462:
No constants are given. Whether binding was seen depends on the method and setting. Binding seen in cells or lysates may run through a third protein. Here binding means that the protein was enriched with, or labelled near, the bait; the list need not be complete.

B1: MX dynamin like GTPase 2 (protein, UniProt A7VK00 1-711)
chain: MPKPRMSWPYQRHRQASSPPHPHKEMNFFPQQPLPLGAGPGQMTFPLNWQMGGKDLTKGLNMLTLSPQQPGGKSGQQTSKGPENNLYSPFEEKVRPCIDLIDSLRALGVEQDLALPTIAVIGDQSSGKSSVLEALSGVPLPRGSGIITRCPLALRLKKKECPWQGRISYRKVELQLQDPSQVEREIRKAQDAIAGSGVGISHELISLEVTSPEVPDLTLIDLPGITRVAVGNQPQDIGLQIKALIRKYIQEQQTINLVVVPCNVDIATTEALRMAQEVDPEGDRTIGILTKPDLVDTGAEKVVLNVMQNLTYHLKKGYMIVKCRGQQEILNKLSLAEATKREIAFFHSHPHFRILLEEGKATVPRLAERLTVELIGHISKSLPLLFSQIKEIHQSATEELRLCGASVPSNDADKMFFLIEKIKVFNQDIENLAEGEEIVKEKEARLYNKIREEFKSWIVTLDCNSKKVKNIIHEEVSKYDRQYRGKELMGFVSYKTFESIVRQYLEELVDPALGMLQTVVEIVRQTFSDTAQKNFGEFSNLNQTTQNKVDSIAARAAERAEGLIRLQFRMEQLVFCQDDIYRVDLKAVREELFNPVAEHPQSLQLRLPFVNGPSPVSSITEIGVHVNAYFMGTSQRLANQIPFIIQYCVLQESRDHLQKAMMQMLQGREQYSWLLQEESHTSAKRHFLKEKIHRLAEARHTLSKFAQSLQG
B2: ITIH2 (protein, UniProt O02668 54-691)
chain: EGVDQVTLYSYKVQSTITSRMANTVIQTKVVNHSPEPQDVVFDIQIPKGAFISNFSMTVDGTKFTSSIKEKTVGRALYWQARAKGKTAGLVRSRALDMENFKTEVNIAPGAKVQFELHYQEVKWRNLGSYEHRIHLQPGRLAKHLEVDVQIIEPQGLRFLHVLDTFDGHFDGVPVVVKGQQKAHVAFKPTVAQQRKCPSCSETAVDGELVVMYDVNREQKAGELQLFNGYFVHFFAPESMDPIPKNILFVIDVSGSMWGIKMKQTVEAMKTILDDLRAEDQFSLVDFNHNIRTWRNDLVSATKTQVADAKTYIEKIQPSGGTNINEALLRAIFILNEANNLGLLDPNSVSLIILVSDGDPTVGELQLSKIQKNVKQNIQDNVSLFSLGIGFDVDYDFLKRLSNDNRGMAQRIYGNQDTASQLKKFYNQVSTPLLRNVQFNYPQASVTDVTQNSFPNYFGGSEIVVAGKFNPEKLEQLQGIITATSANVELVLETLAEMDGLEAFLAKDRHADPDFTKKLWAYLTINQLLDERSRAPSAAVKKKITKSILQMSLDHHIVTPLTAMVVENEAGDERMLADAPPQDQSCCSGTLNYGRKVTPNSLPSWVNPLPTPRVPLPAVGPSVIEATPPPHVMRVEND
B3: ALDH2 (protein, UniProt Q2XQV4 22-521)
chain: SAAPTQAVPAPNQQPEIFYNQIFINNEWHDAISKKTFPTVNPSTGDVICHVAEGDKEDVDRAVEAARAAFQLGSPWRRLDASDRGRLLNRLADLIERDRTYLAALETLDNGKPYVISYLVDLDMVLKCLRYYAGWADKYHGKTLPIDGDYFSYTRHEPVGVCGQIIPWNFPLLMQAWKLGPALATGNVVVMKVSEQTPLTALYVANLIKEAGFPPGVVNIVPGYGPTAGAAIASHEDVDKVAFTGSTEVGHLIQVAAGKSNLKRVTLELGGKSPNIIMSDADMDWAVEQAHFALFFNQGQCCCAGSRTFVQEDIYAEFVERSVARARSRVVGNPFDSRTEQGPQIDETQFKKILGYIKSGKEEGAKLLCGGGAAADRGYFIQPTVFGDVQDGMTIAKEEIFGPVMQILKFKTIEEVIGRANNSKYGLAAAVFTKDLDKANYLSQALQAGTVWVNCYDVFGAQSPFGGYKLSGSGRELGEYGLQAYTEVKTVTVKVPQKNS
B4: ADI1 (protein, UniProt I3LEI8 1-179)
chain: MVQAWYMDESADDPRLPHRTEPARPVGLDQLRRLGVLYWKLDADKYENDPELEKIRNERNYSWMDIITICRDKLPNYEEKIKTFYEEHLHLDDEIRYILDGSGYFDVRDQDDRWIRIFMEKGDLITLPAGIYHRFTLDEQNYVKAMRLFVGDPVWTPYNRPADHLEARGQYLRFLAQST
B5: USH1G (protein, UniProt F1RVV1 1-461)
chain: MNDQYHRAARDGYLELLKEATRKELNAPDEDGMTPTLWAAYHGNLESLRLIVSRGGDPDKCDIWGNTPLHLAASNGHLHCLSFLVSFGANIWCLDNDYHTPLDMGAMKGHMECVRYLDSIAAKQSSLNPKLVGKLKDKAFREAERRIRECAKMQRKHHERMERRYRRELAERSDTLSFSSLTSSTLSRRLQHLALGSHVPYSQATLHGTAKGKTKIQRKLERRKQGGEGTFKISEDGRKSVRSLSGLQLGSDVMFVRQGTYANPKEWGRAPLRDMFLSDEDSVSRATLAAEPAHSEVSTDSGHDSLFTRPGLGTMVFRRNYLSSGLHGLGREDAALDGGGTPRARLQSSPSLDDDSLGSANSLQDRSCGEELPWDELDLGLDEDLEPETSPLETFLASLHMEDFTPLLRQEKIDLEALMLCSDLDLRSISVPLGPRKKIMGAVRRRRQTLERPPALEDTEL

Biological target: porcine circovirus type 2 capsid protein (porcine circovirus type 2, strain HZ0201)
Test: affinity purification with mass spectrometry; lysates (NP-40 buffer) of PK-15 cells infected with PCV2 at MOI 1.0 for 48 h, immunoprecipitated with purified anti-Cap IgG and protein A/G agarose; silver-stained gel, LC-MS; mock-infected cells as negative control

Binder	binding
B1	binds
B2	binds
B3	binds
B4	binds
B5	binds
